# Results reported in PubChem BioAssay AID1671190 (National Center for Advancing Translational Sciences (NCATS), 2021).
# Protein sequences, listed by entry. Tags and fused reporters are not part of them. Lines headed by an entry give the natural chain unless they say otherwise; changes in a name come on top.
# UniProt P18054: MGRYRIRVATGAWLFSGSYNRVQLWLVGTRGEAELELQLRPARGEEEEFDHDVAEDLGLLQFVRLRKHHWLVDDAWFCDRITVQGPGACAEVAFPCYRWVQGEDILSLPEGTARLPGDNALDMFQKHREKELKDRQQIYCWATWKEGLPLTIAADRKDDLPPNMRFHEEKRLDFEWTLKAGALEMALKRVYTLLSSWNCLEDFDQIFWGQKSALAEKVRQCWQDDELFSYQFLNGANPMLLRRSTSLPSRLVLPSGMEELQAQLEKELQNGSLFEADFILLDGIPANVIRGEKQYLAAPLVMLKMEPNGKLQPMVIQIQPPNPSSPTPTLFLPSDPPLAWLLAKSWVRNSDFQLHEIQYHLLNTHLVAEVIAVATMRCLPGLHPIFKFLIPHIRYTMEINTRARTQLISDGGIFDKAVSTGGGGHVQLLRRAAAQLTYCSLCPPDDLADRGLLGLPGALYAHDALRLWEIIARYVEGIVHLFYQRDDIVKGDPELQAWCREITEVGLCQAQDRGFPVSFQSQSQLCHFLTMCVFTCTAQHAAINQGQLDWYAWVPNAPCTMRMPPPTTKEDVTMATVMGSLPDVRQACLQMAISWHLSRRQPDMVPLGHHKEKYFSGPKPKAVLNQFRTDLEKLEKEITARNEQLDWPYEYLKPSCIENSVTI
# The whole screen tested about 580,000 compounds, of which about 6,100 (1.1%) were called active. Where a call stands in place of a potency, no number is given. Inconclusive results, whose numbers are uncertain, are shown with a selection of clear calls. Calls come from the whole dose curve; as a rule, active = well fitted inhibition curve with a large enough effect; inconclusive = small, poorly fitted or top-dose-only effect, or another doubt; inactive = no such curve, though single readings can be large or run the other way. Potencies of inconclusive entries are doubtful fits and often do not repeat.
# Target: Polyunsaturated fatty acid lipoxygenase ALOX12 (Homo sapiens) (UniProt P18054)
# Experiment: Primary qHTS assay for inhibitors of human arachidonate 12S-lipoxygenase (ALOX12): Round 2
# Conditions: purified 12hLO, xylenol orange hydroperoxide absorbance; series mostly up to 108 µM
# Method in brief: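 Hydroperoxide product was detected by ferrous iron/xylenol orange as the 573 to 405 nm absorbance ratio. Arachidonic acid at 40 uM (final) was turned over for 30 min at room temperature by 150 nM human 12hLO, pH 7.0 Hepes buffer, after 15 min compound preincubation.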
# Potency is the fitted concentration of half-maximal effect.
row,Compound,Potency
1,N/C(=N\OC(=O)c1cc(Cl)ccc1Cl)c1cccnc1,"inconclusive: 44.7 µM [inhibitor, partial curve, poor fit]"
2,Cc1ccccc1CSCCNC(=O)Nc1ccccc1,inactive
3,N/C(COc1cccc(C(F)(F)F)c1)=N\NC(=O)c1cccnc1Oc1ccccc1,inactive
4,Nc1nc(Cl)nc(Nc2ccc(F)cc2)c1[N+](=O)[O-],"inconclusive: 56.2 µM [inhibitor, partial curve, poor fit]"
5,CN(C)C(=O)Cn1c(SCC(=O)NCc2ccc3c(c2)OCO3)nc2ccccc21,inactive
6,CCC(=O)NC(c1ccc(Cl)cc1Cl)c1ccc2cccnc2c1O (stereo unspecified),"inconclusive: 31.6 µM [inhibitor, partial curve, poor fit]"
7,CCCSc1nnc(CN2CCOCC2)n1C,"inconclusive: 39.8 µM [inhibitor, partial curve, poor fit]"
8,O=[N+]([O-])c1ccc2ccn(C3OCC(O)C(O)C3O)c2c1 (stereo unspecified),"inconclusive: 100 µM [inhibitor, single point]"
9,COc1ccc(Cl)cc1NC(=O)c1ccc2c(=O)n3c(nc2c1)CCCC3,inactive
10,CC(=O)NC1C(c2nc3ccccc3s2)=C(c2ccccc2)C(=O)N1c1ccc(C)cc1 (stereo unspecified),inactive
11,Cc1ccccc1CN1CCN(c2oc(C3CC3)nc2C#N)CC1,inactive
12,CCCn1c(=N)n(CC(=O)c2ccc([N+](=O)[O-])cc2)c2ccccc21,"inconclusive: 70.8 µM [inhibitor, partial curve, poor fit]"
13,c1nc(NCC2(N3CCOCC3)CCCCC2)c2ccsc2n1,inactive
14,CC(NC(=O)Cc1ccc(NC(=O)N2CCCCc3ccccc32)cc1)c1ccccc1 (stereo unspecified),inactive
15,COc1ccc(-c2nc(CSc3nc4ncccc4[nH]3)c(C)o2)cc1OC,inactive
16,Cc1ccc(NC(=O)C(C)OC(=O)c2n[nH]c3ccccc23)cc1 (stereo unspecified),"inconclusive: 89.1 µM [inhibitor, partial curve, poor fit]"
17,COCc1noc([C@@H]2CC(F)(F)CN2C(=O)Cc2c(C)noc2C)n1,inactive
18,O=C1CSC(=S)N1/N=C/c1ccc(C(F)(F)F)cc1,"inconclusive: 44.7 µM [inhibitor, partial curve, poor fit]"
19,Cn1nccc1C(=O)N1CCC(N2CC3CC(C2)[C@H]2CCCC(=O)N2C3)CC1 (stereo partly specified),"inconclusive: 39.8 µM [inhibitor, single point]"
20,Cc1cc(C)cc(-n2ccn(CC(=O)Nc3ccc(Br)cc3)c(=O)c2=O)c1,inactive
21,COCCNc1ncnc2c1CN(C1CNC1)C(=O)CN2C,"inconclusive: 1.78 µM [inhibitor, partial curve, poor fit]"

# A few values from the entries so far.
# Potency with Nc1nc(Cl)nc(Nc2ccc(F)cc2)c1[N+](=O)[O-] reads inconclusive: 56.2 µM [inhibitor, partial curve, poor fit]
# Potency with Cn1nccc1C(=O)N1CCC(N2CC3CC(C2)[C@H]2CCCC(=O)N2C3)CC1 (stereo partly specified) reads inconclusive: 39.8 µM [inhibitor, single point]
